Source: PubChem BioAssay AID504784 (Drosophila RNAi Screening Center, 2011)
Screen: 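Fly genes whose silencing alters how much lipid cells keep in droplets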 (primary screen). Cells: Drosophila Kc167 embryonic cells. Reagent: long dsRNA against Drosophila genes, about 250 ng dsRNA per well. Timing: 4 days. Challenge: cells fed 400 µM oleic acid bound to BSA. Detection: 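Microscope images give a droplet-to-nucleus area ratio, taken as log and converted to a screen-wide B-score; higher values mean greater lipid storage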. Scale: droplet/nuclear area B-score: higher = more stored lipid (overstorage).
In all, the deposit lists about 17,000 reagents; below is a random part of those that have a named target and a result. 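Each column is one replicate's B-score; the combined score over replicates was not deposited, so single values may mislead.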 A plus sign joins genes that one reagent is predicted to hit. Further read-outs or replicates are left out here. Reagent sequences are not shown.

gene knocked down	dsRNA	droplet/nuclear area B-score, replicate 1
lncRNA:CR32658	DRSC19402	0.414
Rbp1	DRSC16817	1.54
CG1513	DRSC05194	-1.13
CG1513	DRSC06553	-0.545
CG1513	DRSC06554	0.561
CG6996	DRSC10758	-0.101
Flacc	DRSC20040	1.21
gry	DRSC08028	-0.0419
gry	DRSC08518	0.255
CG7889	DRSC20066	1.63
Gcat	DRSC09719	1.05
CG4360	DRSC15566	-0.674
CG9281	DRSC20179	-0.403
CG10962	DRSC18421	-0.988
pk	DRSC06178	-1.17
pk	DRSC07664	-0.122
pk	DRSC22156	5.1
vls	DRSC02101	-1.4
CG17027	DRSC10238	-1.15
cdi	DRSC16922	0.0237
CG1789	DRSC18140	-0.381
Dop2R	DRSC20683	0.792
ox	DRSC07520	1.29
SIFaR	DRSC13467	-0.563
SIFaR	DRSC14266	-0.199
CG10336	DRSC02037	-0.2
CG31897	DRSC01020	0.282
CG1324	DRSC20496	0.00892
Myd88	DRSC06815	0.0303
Saf-B	DRSC16167	5.93
msopa	DRSC11895	-2.67
msopa	DRSC23240	-1.16
CG33333	DRSC13233	-0.114
CG42505 + CG42504 + CG31358	DRSC15235	3.15
CG42505 + CG42504 + CG31358	DRSC15308	0.674
CG42505 + CG42504 + CG31358	DRSC15309	-0.264

Reprinted from the entries so far for reference:
gene knocked down	dsRNA	droplet/nuclear area B-score, replicate 1
CG17027	DRSC10238	-1.15
cdi	DRSC16922	0.0237
CG1789	DRSC18140	-0.381
Dop2R	DRSC20683	0.792
ox	DRSC07520	1.29
